Test [1] addresses endogenous E2F4 (38HK) (human (endogenous in 38HK)) (UniProt Q16254). The test can be described thus: co-IP.
Test [2] has as its target endogenous E2F4 (38HK) (human (endogenous in 38HK)), Q16254. In words: co-IP. The settings on record: remark: other sources report otherwise.

Chains of the proteins cited; added tags and fusions are not shown. Lines headed by an entry give the natural chain unless they say otherwise; changes in a name come on top.
UniProt Q16254, whole entry: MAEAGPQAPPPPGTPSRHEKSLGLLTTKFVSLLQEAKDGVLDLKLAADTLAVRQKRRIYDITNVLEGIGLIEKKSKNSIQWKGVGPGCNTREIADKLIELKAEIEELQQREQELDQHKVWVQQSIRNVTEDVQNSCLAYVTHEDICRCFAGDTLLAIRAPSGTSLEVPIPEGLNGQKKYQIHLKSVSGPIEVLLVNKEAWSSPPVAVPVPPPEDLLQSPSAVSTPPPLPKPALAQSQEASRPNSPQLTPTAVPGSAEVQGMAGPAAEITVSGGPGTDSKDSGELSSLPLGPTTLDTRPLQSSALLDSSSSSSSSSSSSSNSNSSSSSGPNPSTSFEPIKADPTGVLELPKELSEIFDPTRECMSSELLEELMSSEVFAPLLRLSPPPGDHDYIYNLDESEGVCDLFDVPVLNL

No constants are given. Whether binding was seen depends on the method and setting. Binding seen in cells or lysates may run through a third protein. Some results given as binding are weak or reduced against the parent protein; the word gives no strength. For some assays here: Sequences can lack the tags named with a protein.

B1: HA-ΔNp73α (protein, UniProt O15350-8 1-587)
chain: MLYVGDPARHLATAQFNLLSSTMDQMSSRAASASPYTPEHAASVPTHSPYAQPSSTFDTMSPAPVIPSNTDYPGPHHFEVTFQQSSTAKSATWTYSPLLKKLYCQIAKTCPIQIKVSTPPPPGTAIRAMPVYKKAEHVTDVVKRCPNHELGRDFNEGQSAPASHLIRVEGNNLSQYVDDPVTGRQSVVVPYEPPQVGTEFTTILYNFMCNSSCVGGMNRRPILIIITLEMRDGQVLGRRSFEGRICACPGRDRKADEDHYREQQALNESSAKNGAASKRAFKQSPPAVPALGAGVKKRRHGDEDTYYLQVRGRENFEILMKLKESLELMELVPQPLVDSYRQQQQLLQRPSHLQPPSYGPVLSPMNKVHGGMNKLPSVNQLVGQPPPHSSAATPNLGPVGPGMLNNHGHAVPANGEMSSSHSAQSMVSGSHCTPPPPYHADPSLVSFLTGLGCPNCIEYFTSQGLQSIYHLQNLTIEDLGALKIPEQYRMTIWRGLQDLKQGHDYSTAQQLLRSSNAATISIGGSGELQRQRVMEAVHFRVRHTITIPNRGGPGGGPDEWADFGFDLPDCKARKQPIKEEFTEAEIH
For B1, the binding result in test [1] is reported as “binds”.

B2: endogenous retinoblastoma-like 2 (RBL2/p130) (38HK), Q08999 1-1139 (protein)
chain: MPSGGDQSPPPPPPPPAAAASDEEEEDDGEAEDAAPPAESPTPQIQQRFDELCSRLNMDEAARAEAWDSYRSMSESYTLEGNDLHWLACALYVACRKSVPTVSKGTVEGNYVSLTRILKCSEQSLIEFFNKMKKWEDMANLPPHFRERTERLERNFTVSAVIFKKYEPIFQDIFKYPQEEQPRQQRGRKQRRQPCTVSEIFHFCWVLFIYAKGNFPMISDDLVNSYHLLLCALDLVYGNALQCSNRKELVNPNFKGLSEDFHAKDSKPSSDPPCIIEKLCSLHDGLVLEAKGIKEHFWKPYIRKLYEKKLLKGKEENLTGFLEPGNFGESFKAINKAYEEYVLSVGNLDERIFLGEDAEEEIGTLSRCLNAGSGTETAERVQMKNILQQHFDKSKALRISTPLTGVRYIKENSPCVTPVSTATHSLSRLHTMLTGLRNAPSEKLEQILRTCSRDPTQAIANRLKEMFEIYSQHFQPDEDFSNCAKEIASKHFRFAEMLYYKVLESVIEQEQKRLGDMDLSGILEQDAFHRSLLACCLEVVTFSYKPPGNFPFITEIFDVPLYHFYKVIEVFIRAEDGLCREVVKHLNQIEEQILDHLAWKPESPLWEKIRDNENRVPTCEEVMPPQNLERADEICIAGSPLTPRRVTEVRADTGGLGRSITSPTTLYDRYSSPPASTTRRRLFVENDSPSDGGTPGRMPPQPLVNAVPVQNVSGETVSVTPVPGQTLVTMATATVTANNGQTVTIPVQGIANENGGITFFPVQVNVGGQAQAVTGSIQPLSAQALAGSLSSQQVTGTTLQVPGQVAIQQISPGGQQQKQGQSVTSSSNRPRKTSSLSLFFRKVYHLAAVRLRDLCAKLDISDELRKKIWTCFEFSIIQCPELMMDRHLDQLLMCAIYVMAKVTKEDKSFQNIMRCYRTQPQARSQVYRSVLIKGKRKRRNSGSSDSRSHQNSPTELNKDRTSRDSSPVMRSSSTLPVPQPSSAPPTPTRLTGANSDMEEEERGDLIQFYNNIYIKQIKTFAMKYSQANMDAPPLSPYPFVRTGSPRRIQLSQNHPVYISPHKNETMLSPREKIFYYFSNSPSKRLREINSMIRTGETPTKKRGILLEDGSESPAKRICPENHSALLRRLQDVANDRGSH
With B2, the binding entry in test [2] is on record as “binds”.

(Values after doi:10.1101/2022.10.27.514150.)
